Screen size: about 320,000 compounds; about 310 (0.097%) were called active. Inconclusive results, whose numbers are uncertain, are shown with a selection of clear calls.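 How the source made its calls: active means mean replicate activation of at least 60% and every replicate at or above 60%; inconclusive means mean or all-replicate condition met, but not both; inactive means mean below 60% and not all replicates reaching 60%.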
test: enhancers of HDL lipid transfer via mSR-BI – ldlA[mSR-BI] CHO cells, DiI fluorescence, primary screen (AID 504775); conditions: DiI-HDL uptake fluorescence, 3 h, at 12.5 µM, hits give high values, 100 = double the neutral-control signal;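 further: 0% = median plate neutral-control signal and 100% = twice that signal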
How it was run: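 Assay system: CHO ldlA[mSR-BI] cells, LDL receptor-null, SR-BI overexpressing; medium: Ham's F12 with 0.5% BSA, HEPES 25 mM, pH 7.4; also added: DiI-HDL 10 µg/mL; timing: 3 h uptake period with compound, 37 °C; signal: DiI fluorescence, bottom read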

| SMILES | activation |
| --- | --- |
| Cc1ccc(C(=O)Nc2nnc(NC(=S)Nc3ccccc3)s2)cc1 | inactive: -70.2% |
| Cc1c(C(=O)Nc2ccccc2F)sc2ncn(CC(=O)N3CCCCC3)c(=O)c12 | inconclusive: 145% |
| NC(=O)c1ccc(NC(=O)COC(=O)c2cc3c(s2)CCC3)cc1 | inactive: -8.89% |
| CCCNC(=O)c1nn2cc(Br)cnc2c1Br | inactive: 30.2% |
| CCN1C(=O)[C@H]2[C@@H](c3ccc(C)cc3)N3C(=O)N(c4cccc(F)c4)C(=O)[C@@]3(Cc3ccc(Cl)cc3)[C@H]2C1=O | inactive: 0.711% |
| CC(Sc1nnc(C2CC2)n1-c1ccccc1)C(=O)N1CCCC1 (stereo not given) | inconclusive: 167% |
| CCOC(=O)C1CCN(S(=O)(=O)CCNC(=O)c2ccccc2)CC1 | inconclusive: 60.4% |
| O=C(Nc1cc(S(=O)(=O)N2CCOCC2)ccc1N1CCCCC1)c1ccccc1Br | inactive: -3.01% |
| NC(=O)C1CCN(C(=O)CSc2nc(O)cc(=O)[nH]2)CC1 | inconclusive: 166% |
| Cn1cc(C(=O)Nc2ccc(C#N)cc2)c2ccccc2c1=O | inconclusive: 319% |
| O=C(NCCc1ccccc1)c1ccc(NC2=NC3CS(=O)(=O)CC3S2)cc1 (stereo not given) | active: 85.7% |
| Cc1ccc(NC(=S)N2CCCCC2)cc1C | inconclusive: 151% |
| Cc1nnc(SCC(=O)NC2CCS(=O)(=O)C2)n1Cc1ccccc1 (stereo not given) | active: 65.9% |
| CCN(CCO)Cc1csc2ccc(Cl)cc12 | active: 70% |
| CC(=O)N1CCc2cc(S(=O)(=O)N3CCc4ccccc43)ccc21 | inactive: -22.2% |
| Cc1occc1-c1nnc(SCC(=O)NCc2cccs2)n1CC1CCCO1 (stereo not given) | inconclusive: 61.3% |
| OC1CN=C2CCCc3c2n(c2ccc(Cl)cc32)C1 (stereo not given) | inconclusive: 98.8% |
| COc1ccc(S(=O)(=O)O/N=C2\CCCc3ccccc32)cc1 | inconclusive: 354% |
| O=C(CSc1ccc(F)cc1)NC(=O)NCc1ccccc1 | inconclusive: 190% |
| CC(C)Cn1c(N)c(C(=O)COC(=O)c2cc(-c3ccccc3)nc3ccccc23)c(=O)n(C)c1=O | inactive: -68.6% |
| CCOC(=O)c1c(NC(=O)c2ccccc2N(C)S(=O)(=O)c2ccccc2)sc2c1CCCC2 | inactive: -29% |
| CC(=O)c1cccc(NC(=O)c2ccc(CN3CCc4ccccc4C3)cc2)c1 | inactive: -52.5% |
| CCc1cccc(NC(=O)Cn2c(=O)n(CCC(=O)NCC3CCCO3)c(=O)c3cc(OC)c(OC)cc32)c1 (stereo not given) | active: 379% |
| CCn1c(SCC(=O)N2CCCC2=O)nnc1-c1cccs1 | active: 96.4% |
| CCN(CC)CCNC(=O)c1ccc(Cl)c(S(=O)(=O)Nc2ccc(Cl)cc2)c1 | inconclusive: 62.7% |

Copied from the list.
Under activation, NC(=O)c1ccc(NC(=O)COC(=O)c2cc3c(s2)CCC3)cc1 is entered as inactive: -8.89%
Under activation, CC(C)Cn1c(N)c(C(=O)COC(=O)c2cc(-c3ccccc3)nc3ccccc23)c(=O)n(C)c1=O is entered as inactive: -68.6%

Source: PubChem BioAssay AID504775 (Broad Institute, 2011)
